Results from US12121507B2, “Water-soluble curcumin liquid and preparation method and application thereof” (HENAN ZHONGDA HENGYUAN BIOTECHNOLOGY STOCK CO., LTD., priority 2021, dated 2024).

Assay: Solubility in water (dispersed in water, photo)
Type: physicochemical
Description: The curcumin content was 10.2%, and the D90 particle size was 278 nm. […] The curcumin content was 5.2%, and the D90 particle size was 262 nm. FIG. 2 is a photo of solubility of the curcumin raw material in water. It can be seen from FIG. 2 that curcumin is insoluble in water.

With COc1cc(/C=C/C(=O)CC(=O)/C=C/c2ccc(O)c(OC)c2)ccc1O [curcumin raw material, curcumin] the water solubility was “insoluble”.
